Data on 1 sequence can be found in PMC4102245, “A molecular model for the role of SYCP3 in meiotic chromosome organisation” (eLife, 2014).

Positions count from the first letter of the chain named. The comparison behind a weaker result is the experiment's own reference, which may not be listed here. Tags and fusion partners may be left off the protein sequences shown.

For data set [1], the target named is T1, SYCP3 dCt6 dBP2 K88A,R89A,K90A,R91A (human) (UniProt Q8IZU3).
T1 sequence (looked up): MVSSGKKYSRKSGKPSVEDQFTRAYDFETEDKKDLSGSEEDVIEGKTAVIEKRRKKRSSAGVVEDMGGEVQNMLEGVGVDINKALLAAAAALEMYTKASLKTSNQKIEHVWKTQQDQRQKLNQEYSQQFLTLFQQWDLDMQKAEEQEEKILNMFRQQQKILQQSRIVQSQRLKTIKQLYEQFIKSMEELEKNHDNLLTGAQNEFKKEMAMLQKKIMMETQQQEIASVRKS
In words: fluorescence anisotropy. The conditions noted are these: 20 mM Tris pH 8.0, 150 mM KCl; FA at 25 C with 25 nM DNA (0-20 uM protein); recombinant protein; residues 1-230; protein details: N-terminal His6, TEV-cleaved; label: 5' FAM.

The target in data set [2] is T2, SYCP3 dCt6 dBP1 K52A,R53A,R54A,K55A,K56A,R57A (human) (UniProt Q8IZU3).
T2 sequence (looked up): T1 sequence (looked up) with K52A, R53A, R54A, K55A, K56A, R57A, A88K, A89R, A90K, A91R
In words: fluorescence anisotropy. The conditions noted are these: 20 mM Tris pH 8.0, 150 mM KCl; FA at 25 C with 25 nM DNA (0-20 uM protein); recombinant protein; residues 1-230; protein details: N-terminal His6, TEV-cleaved; label: 5' FAM. A general note: In fluorescence polarisation assays a small probe gives low polarisation when free and higher when bound to something large.

On to “ATGGTGTGTGTAGGTTAATGTGAGGAGGAGAGGTGAAGAAGGAGGAGAGAAGAAGGAGGC (double strand) [60 bp FAM-dsDNA]”, for which the binding result in data set [1] and in data set [2] was “binds more weakly” in each case.
